PubChem BioAssay AID1259424 – University of Nebraska Medical Center | 2018

- Test: 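Rank knockdowns across the genome by resemblance to the KSR1 depletion profile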 (primary screen)
- Cells: human HCT116 colon cancer cells
- Reagent: siRNA pool against human genes, 50 nM
- Detection: 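Six signature mRNAs by branched-DNA multiplex assay, scaled to two housekeeping genes and non-targeting median, log2; matched to mean KSR1 knockdown profile by Pearson correlation and euclidean distance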
- Reading the numbers: mean correlation with KSR1 profile and KSR1 correlation: higher = expression change more like KSR1 knockdown; mean distance from KSR1 profile: higher = expression change less like KSR1 knockdown
The deposit covers about 14,000 reagents; this is a part drawn at random. 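Higher correlation or smaller distance means closer resemblance to KSR1 loss; control wells, including KSR1 knockdowns, recur on many plates.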 Not given: the time to read-out.

gene symbol	mean correlation with KSR1 profile	mean distance from KSR1 profile	KSR1 correlation, replicate 1	KSR1 correlation, replicate 2	KSR1 correlation, replicate 3
FBXO4 (F-box protein 4)	-0.0296	1.36	-0.0715	0.0129	-0.189
CCT2 (chaperonin containing TCP1 subunit 2)	-0.338	4.53	-0.103	-0.333	-0.526
ARRDC2 (arrestin domain containing 2)	0.471	1.36	0.109	-0.0935	0.176
PRDM12 (PR/SET domain 12)	0.511	1.55	0.558	0.619	0.216
CCT8 (chaperonin containing TCP1 subunit 8)	-0.307	3.27	-0.267	-0.293	-0.472
IFNA8 (interferon alpha 8)	-0.181	1.67	-0.22	-0.196	-0.135
VEGFA (vascular endothelial growth factor A)	0.506	1.02	0.561	0.3	0.519
SMURF1 (SMAD specific E3 ubiquitin protein ligase 1)	-0.08	1.26	-0.249	0.0838	-0.0538
ZNF140 (zinc finger protein 140)	-0.288	2.78	-0.308	-0.0305	-0.568
MXD1 (MAX dimerization protein 1)	0.265	2.31	0.609	0.369	-0.0246
CATSPERB (catsper channel auxiliary subunit beta)	0.362	1.79	0.447	0.39	0.329

Reprinted from the listing, 3 entries:
gene symbol	mean correlation with KSR1 profile	mean distance from KSR1 profile	KSR1 correlation, replicate 1	KSR1 correlation, replicate 2	KSR1 correlation, replicate 3
CCT2 (chaperonin containing TCP1 subunit 2)	-0.338	4.53	-0.103	-0.333	-0.526
ARRDC2 (arrestin domain containing 2)	0.471	1.36	0.109	-0.0935	0.176
PRDM12 (PR/SET domain 12)	0.511	1.55	0.558	0.619	0.216

Further reagents follow.
gene symbol	mean correlation with KSR1 profile	mean distance from KSR1 profile	KSR1 correlation, replicate 1	KSR1 correlation, replicate 2	KSR1 correlation, replicate 3
BST1 (bone marrow stromal cell antigen 1)	0.414	2.53	0.467	0.422	0.17
RPS24 (ribosomal protein S24)	0.123	1.54	0.0336	0.0915	0.105
FOXL1 (forkhead box L1)	0.176	1.73	0.404	0.172	0.174
CUL4A (cullin 4A)	0.138	0.965	0.312	-0.426	-0.341
CYB561D2 (cytochrome b561 family member D2)	0.0973	3.52	0.374	0.446	-0.281
SPEF1 (sperm flagellar and cilia associated 1)	0.124	1.48	-0.299	-0.0674	0.45
BATF3 (basic leucine zipper ATF-like transcription factor 3)	0.364	1.72	0.59	0.729	-0.0639
ARNT (aryl hydrocarbon receptor nuclear translocator)	-0.689	1.9	-0.496	-0.64	-0.735
ZNF436 (zinc finger protein 436)	0.387	1.6	0.326	0.231	0.365
RAB27B (RAB27B, member RAS oncogene family)	0.801	0.708	0.67	0.894	0.549
CCDC86 (coiled-coil domain containing 86)	-0.739	5.5	-0.836	-0.598	-0.841
GUCY2D (guanylate cyclase 2D, retinal)	0.131	2.2	0.0437	0.0957	-0.12
ZNF76 (zinc finger protein 76)	-0.109	1.93	-0.395	-0.635	0.246
ABHD1 (abhydrolase domain containing 1)	0.791	0.794	0.891	0.851	0.446
PFKFB4 (6-phosphofructo-2-kinase/fructose-2,6-biphosphatase 4)	0.22	1.54	0.88	0.276	-0.0117
PLCE1 (phospholipase C epsilon 1)	-0.603	2.15	-0.797	-0.413	-0.0124
PRDX2 (peroxiredoxin 2)	0.217	1.89	0.301	0.154	0.376
UBN1 (ubinuclein 1)	-0.612	1.8	-0.602	-0.411	-0.442
OSER1 (oxidative stress responsive serine rich 1)	-0.476	2.45	-0.61	-0.176	-0.253
MYL4 (myosin light chain 4)	-0.377	3	-0.33	-0.399	-0.382
PTMA (prothymosin alpha)	-0.444	2.07	-0.516	-0.499	-0.412
NOD2 (nucleotide binding oligomerization domain containing 2)	0.312	1.6	0.214	0.596	0.105
SH3RF1 (SH3 domain containing ring finger 1)	-0.504	5.12	-0.0969	-0.141	-0.386
